The results in this text go back to the supplement of paper PMC9262897, “Low-cost anti-mycobacterial drug discovery using engineered E. coli” (Nature Communications, 2022).

Counter-ions that a name gives are not always drawn. ± gives the standard deviation of the averaged measurements. Most of the lowest values are listed elsewhere, so they are rarer here than in the full data.

The first test has as its system E. coli TESEC Mtb Asd. Description: growth (OD600 after 10 h); higher = more growth (less inhibition). Conditions: arabinose induction (level): High; compound 0.1 mM; raw OD600 reference: median of DMSO wells 0.331, cell-free background 0.041. Here is the method: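 TESEC E. coli strains in which the native enzyme is deleted and replaced by arabinose-inducible Mtb Asd, DapB, CysH or TrpD, each grown in its selective medium. Strains were screened against the Prestwick library at 0.1 mM and 1% DMSO in 384-well format at low and high arabinose induction. Growth is read as OD600 after 10 h in triplicate.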
Take `CN1[C@@H]2CC[C@H]1C[C@@H](OC(=O)C(O)c1ccccc1)C2` (mixture of isomers) [Homatropine hydrobromide (R,S)]: the growth came out at 0.402 ± 0.038.

Staying with this test, now noted: arabinose induction (level): Low; compound 0.1 mM; raw OD600 reference: median of DMSO wells 0.417, cell-free background 0.041.
In turn, `CN1[C@@H]2CC[C@H]1C[C@@H](OC(=O)C(O)c1ccccc1)C2` (mixture of isomers) [Homatropine hydrobromide (R,S)] showed a growth of 0.421 ± 0.027.
